Results taken from paper doi:10.1101/2023.12.02.569451.
Results are given in words; binding and its absence hold for the method and conditions named. In cells and extracts the contact can be indirect. Here binding means that the protein was enriched with, or labelled near, the bait; the list need not be complete.

Sequences of proteins named here, by UniProt entry; tags and fusion partners are left off.
UniProt P35226: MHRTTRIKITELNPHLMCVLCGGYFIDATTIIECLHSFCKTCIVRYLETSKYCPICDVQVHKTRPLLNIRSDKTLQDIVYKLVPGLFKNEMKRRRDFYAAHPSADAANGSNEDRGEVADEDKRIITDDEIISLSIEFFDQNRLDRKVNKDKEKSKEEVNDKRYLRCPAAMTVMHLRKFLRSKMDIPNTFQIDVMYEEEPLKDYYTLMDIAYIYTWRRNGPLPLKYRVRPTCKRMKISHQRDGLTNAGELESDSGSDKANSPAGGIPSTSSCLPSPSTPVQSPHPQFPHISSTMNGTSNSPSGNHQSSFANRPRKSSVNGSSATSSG
UniProt Q99496: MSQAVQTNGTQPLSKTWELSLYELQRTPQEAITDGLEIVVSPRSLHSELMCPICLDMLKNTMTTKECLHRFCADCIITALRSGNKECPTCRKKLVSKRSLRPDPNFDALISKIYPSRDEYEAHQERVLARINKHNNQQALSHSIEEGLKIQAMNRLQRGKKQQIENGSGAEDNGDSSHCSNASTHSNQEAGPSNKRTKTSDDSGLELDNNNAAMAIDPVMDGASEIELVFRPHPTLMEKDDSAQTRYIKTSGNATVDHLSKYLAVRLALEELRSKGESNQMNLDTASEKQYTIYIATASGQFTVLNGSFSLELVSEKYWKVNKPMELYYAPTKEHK

Columns and labels:
[1] = molecular target: PCGF4 (human (endogenous in HSJD-DIPG-007 and DIPGXIII)) (UniProt P35226); assay: affinity purification with mass spectrometry
[2] = molecular target: RING1B (human (endogenous in HSJD-DIPG-007 and DIPGXIII)) (UniProt Q99496); assay: affinity purification with mass spectrometry

| binding [1] | binding [2] | Binder |
| --- | --- | --- |
| binds | binds | PHC1 (protein, UniProt P78364 1-1004) METESEQNSNSTNGSSSSGGSSRPQIAQMSLYERQAVQALQALQRQPNAAQYFHQFMLQQQLSNAQLHSLAAVQQATIAASRQASSPNTSTTQQQTTTTQASINLATTSAAQLISRSQSVSSPSATTLTQSVLLGNTTSPPLNQSQAQMYLRPQLGNLLQVNRTLGRNVPLASQLILMPNGAVAAVQQEVPSAQSPGVHADADQVQNLAVRNQQASAQGPQMQGSTQKAIPPGASPVSSLSQASSQALAVAQASSGATNQSLNLSQAGGGSGNSIPGSMGPGGGGQAHGGLGQLPSSGMGGGSCPRKGTGVVQPLPAAQTVTVSQGSQTEAESAAAKKAEADGSGQQNVGMNLTRTATPAPSQTLISSATYTQIQPHSLIQQQQQIHLQQKQVVIQQQIAIHHQQQFQHRQSQLLHTATHLQLAQQQQQQQQQQQQQQQPQATTLTAPQPPQVPPTQQVPPSQSQQQAQTLVVQPMLQSSPLSLPPDAAPKPPIPIQSKPPVAPIKPPQLGAAKMSAAQQPPPHIPVQVVGTRQPGTAQAQALGLAQLAAAVPTSRGMPGTVQSGQAHLASSPPSSQAPGALQECPPTLAPGMTLAPVQGTAHVVKGGATTSSPVVAQVPAAFYMQSVHLPGKPQTLAVKRKADSEEERDDVSTLGSMLPAKASPVAESPKVMDEKSSLGEKAESVANVNANTPSSELVALTPAPSVPPPTLAMVSRQMGDSKPPQAIVKPQILTHIIEGFVIQEGAEPFPVGCSQLLKESEKPLQTGLPTGLTENQSGGPLGVDSPSAELDKKANLLKCEYCGKYAPAEQFRGSKRFCSMTCAKRYNVSCSHQFRLKRKKMKEFQEANYARVRRRGPRRSSSDIARAKIQGKCHRGQEDSSRGSDNSSYDEALSPTSPGPLSVRAGHGERDLGNPNTAPPTPELHGINPVFLSSNPSRWSVEEVYEFIASLQGCQEIAEEFRSQEIDGQALLLLKEEHLMSAMNIKLGPALKICAKINVLKET |
| binds | binds | PHC2 (protein, UniProt Q8IXK0 1-858) MENELPVPHTSSSACATSSTSGASSSSGCNNSSSGGSGRPTGPQISVYSGIPDRQTVQVIQQALHRQPSTAAQYLQQMYAAQQQHLMLQTAALQQQHLSSAQLQSLAAVQQASLVSNRQGSTSGSNVSAQAPAQSSSINLAASPAAAQLLNRAQSVNSAAASGIAQQAVLLGNTSSPALTASQAQMYLRAQMLIFTPTATVATVQPELGTGSPARPPTPAQVQNLTLRTQQTPAAAASGPTPTQPVLPSLALKPTPGGSQPLPTPAQSRNTAQASPAGAKPGIADSVMEPHKKGDGNSSVPGSMEGRAGLSRTVPAVAAHPLIAPAYAQLQPHQLLPQPSSKHLQPQFVIQQQPQPQQQQPPPQQSRPVLQAEPHPQLASVSPSVALQPSSEAHAMPLGPVTPALPLQCPTANLHKPGGSQQCHPPTPDTGPQNGHPEGVPHTPQRRFQHTSAVILQLQPASPPQQCVPDDWKEVAPGEKSVPETRSGPSPHQQAIVTAMPGGLPVPTSPNIQPSPAHETGQGIVHALTDLSSPGMTSGNGNSASSIAGTAPQNGENKPPQAIVKPQILTHVIEGFVIQEGAEPFPVGRSSLLVGNLKKKYAQGFLPEKLPQQDHTTTTDSEMEEPYLQESKEEGAPLKLKCELCGRVDFAYKFKRSKRFCSMACAKRYNVGCTKRVGLFHSDRSKLQKAGAATHNRRRASKASLPPLTKDTKKQPTGTVPLSVTAALQLTHSQEDSSRCSDNSSYEEPLSPISASSSTSRRRQGQRDLELPDMHMRDLVGMGHHFLPSEPTKWNVEDVYEFIRSLPGCQEIAEEFRAQEIDGQALLLLKEDHLMSAMNIKLGPALKIYARISMLKDS |
| – | binds | PCGF6 (protein, UniProt Q9BYE7 1-350) MEGVAVVTAGSVGAAKTEGAAALPPPPPVSPPALTPAPAAGEEGPAPLSETGAPGCSGSRPPELEPERSLGRFRGRFEDEDEELEEEEELEEEEEEEEEDMSHFSLRLEGGRQDSEDEEERLINLSELTPYILCSICKGYLIDATTITECLHTFCKSCIVRHFYYSNRCPKCNIVVHQTQPLYNIRLDRQLQDIVYKLVINLEEREKKQMHDFYKERGLEVPKPAVPQPVPSSKGRSKKVLESVFRIPPELDMSLLLEFIGANEGTGHFKPLEKKFVRVSGEATIGHVEKFLRRKMGLDPACQVDIICGDHLLEQYQTLREIRRAIGDAAMQDGLLVLHYGLVVSPLKIT |
| – | binds | PCGF2 (protein, UniProt P35227 1-344) MHRTTRIKITELNPHLMCALCGGYFIDATTIVECLHSFCKTCIVRYLETNKYCPMCDVQVHKTRPLLSIRSDKTLQDIVYKLVPGLFKDEMKRRRDFYAAYPLTEVPNGSNEDRGEVLEQEKGALSDDEIVSLSIEFYEGARDRDEKKGPLENGDGDKEKTGVRFLRCPAAMTVMHLAKFLRNKMDVPSKYKVEVLYEDEPLKEYYTLMDIAYIYPWRRNGPLPLKYRVQPACKRLTLATVPTPSEGTNTSGASECESVSDKAPSPATLPATSSSLPSPATPSHGSPSSHGPPATHPTSPTPPSTASGATTAANGGSLNCLQTPSSTSRGRKMTVNGAPVPPLT |
| – | binds | PCGF3 (protein, UniProt Q3KNV8 1-242) MLTRKIKLWDINAHITCRLCSGYLIDATTVTECLHTFCRSCLVKYLEENNTCPTCRIVIHQSHPLQYIGHDRTMQDIVYKLVPGLQEAEMRKQREFYHKLGMEVPGDIKGETCSAKQHLDSHRNGETKADDSSNKEAAEEKPEEDNDYHRSDEQVSICLECNSSKLRGLKRKWIRCSAQATVLHLKKFIAKKLNLSSFNELDILCNEEILGKDHTLKFVVVTRWRFKKAPLLLHYRPKMDLL |
| binds | binds | PHC3 (protein, UniProt Q8NDX5 1-983) MDTEPNPGTSSVSTTTSSTTTTTITTSSSRMQQPQISVYSGSDRHAVQVIQQALHRPPSSAAQYLQQMYAAQQQHLMLHTAALQQQHLSSSQLQSLAAVQASLSSGRPSTSPTGSVTQQSSMSQTSINLSTSPTPAQLISRSQASSSTSGSITQQTMLLGSTSPTLTASQAQMYLRAQMLIFTPATTVAAVQSDIPVVSSSSSSSCQSAATQVQNLTLRSQKLGVLSSSQNGPPKSTSQTQSLTICHNKTTVTSSKISQRDPSPESNKKGESPSLESRSTAVTRTSSIHQLIAPASYSPIQPHSLIKHQQIPLHSPPSKVSHHQLILQQQQQQIQPITLQNSTQDPPPSQHCIPLQNHGLPPAPSNAQSQHCSPIQSHPSPLTVSPNQSQSAQQSVVVSPPPPHSPSQSPTIIIHPQALIQPHPLVSSALQPGPNLQQSTANQVQATAQLNLPSHLPLPASPVVHIGPVQQSALVSPGQQIVSPSHQQYSSLQSSPIPIASPPQMSTSPPAQIPPLPLQSMQSLQVQPEILSQGQVLVQNALVSEEELPAAEALVQLPFQTLPPPQTVAVNLQVQPPAPVDPPVVYQVEDVCEEEMPEESDECVRMDRTPPPPTLSPAAITVGRGEDLTSEHPLLEQVELPAVASVSASVIKSPSDPSHVSVPPPPLLLPAATTRSNSTSMHSSIPSIENKPPQAIVKPQILTHVIEGFVIQEGLEPFPVSRSSLLIEQPVKKRPLLDNQVINSVCVQPELQNNTKHADNSSDTEMEDMIAEETLEEMDSELLKCEFCGKMGYANEFLRSKRFCTMSCAKRYNVSCSKKFALSRWNRKPDNQSLGHRGRRPSGPDGAAREHILRQLPITYPSAEEDLASHEDSVPSAMTTRLRRQSERERERELRDVRIRKMPENSDLLPVAQTEPSIWTVDDVWAFIHSLPGCQDIADEFRAQEIDGQALLLLKEDHLMSAMNIKLGPALKICARINSLKES |
